From PMC6691589
Results are given in words; binding and its absence hold for the method and conditions named. Binding seen in cells or lysates may run through a third protein. Some results given as binding are weak or reduced against the parent protein; the word gives no strength.

Protein sequences, listed by entry. Tags and fused reporters are not part of them. Lines headed by an entry give the natural chain unless they say otherwise; changes in a name come on top. Residues count along the entry.
UniProt P03146: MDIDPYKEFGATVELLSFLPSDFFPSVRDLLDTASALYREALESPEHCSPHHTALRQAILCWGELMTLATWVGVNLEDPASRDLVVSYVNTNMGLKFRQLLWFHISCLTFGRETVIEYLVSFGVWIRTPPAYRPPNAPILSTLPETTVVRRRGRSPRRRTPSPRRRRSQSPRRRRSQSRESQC
pcDNA4.0-HBc 45-183aa (hepatitis B virus (cDNA of HepG2.2.15 cells)): residues 45-183 of P03146
UniProt P12004: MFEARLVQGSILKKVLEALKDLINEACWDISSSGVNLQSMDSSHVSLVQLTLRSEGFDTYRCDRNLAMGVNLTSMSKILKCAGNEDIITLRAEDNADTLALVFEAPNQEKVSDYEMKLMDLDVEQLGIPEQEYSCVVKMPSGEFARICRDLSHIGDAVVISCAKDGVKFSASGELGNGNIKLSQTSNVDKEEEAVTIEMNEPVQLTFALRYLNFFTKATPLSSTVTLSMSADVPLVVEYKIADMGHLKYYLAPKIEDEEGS

Columns and labels:
[1] = biological target: HBc (endogenous, HepG2.2.15 cells) (hepatitis B virus (expressed in HepG2.2.15 cells)) (UniProt P03146); assay: co-IP; endogenous PCNA and HBc in HepG2.2.15 cells
[2] = biological target: pcDNA4.0-HBc-wt (hepatitis B virus (cDNA of HepG2.2.15 cells)) (UniProt P03146); assay: co-IP; HepG2 cells transfected with His-HBc or His-tagged serial HBc deletion mutants (Figure 3C bottom: cotransfected with PCH9/3091 plasmids)
[3] = biological target: pcDNA4.0-HBc 45-183aa (hepatitis B virus (cDNA of HepG2.2.15 cells)) (UniProt P03146); assay: as above

Measured: binding

PCNA (from UniProt P12004 1-261)
binds: all assays above
